Results are given in words; binding and its absence hold for the method and conditions named. In cells and extracts the contact can be indirect. These calls come from enrichment with a bait or labelling near it, and not all partners need be listed.
Target: Influenza A virus non-structural protein 1 (NS1), strain A/Puerto Rico/8/1934(H1N1) (Influenza A virus A/Puerto Rico/8/1934(H1N1)), P03496
Test: affinity purification with mass spectrometry
Conditions: remark: other sources report otherwise

B1: Interleukin enhancer-binding factor 3, Q12906 1-894 (protein)
chain: MRPMRIFVNDDRHVMAKHSSVYPTQEELEAVQNMVSHTERALKAVSDWIDEQEKGSSEQAESDNMDVPPEDDSKEGAGEQKTEHMTRTLRGVMRVGLVAKGLLLKGDLDLELVLLCKEKPTTALLDKVADNLAIQLAAVTEDKYEILQSVDDAAIVIKNTKEPPLSLTIHLTSPVVREEMEKVLAGETLSVNDPPDVLDRQKCLAALASLRHAKWFQARANGLKSCVIVIRVLRDLCTRVPTWGPLRGWPLELLCEKSIGTANRPMGAGEALRRVLECLASGIVMPDGSGIYDPCEKEATDAIGHLDRQQREDITQSAQHALRLAAFGQLHKVLGMDPLPSKMPKKPKNENPVDYTVQIPPSTTYAITPMKRPMEEDGEEKSPSKKKKKIQKKEEKAEPPQAMNALMRLNQLKPGLQYKLVSQTGPVHAPIFTMSVEVDGNSFEASGPSKKTAKLHVAVKVLQDMGLPTGAEGRDSSKGEDSAEETEAKPAVVAPAPVVEAVSTPSAAFPSDATAEQGPILTKHGKNPVMELNEKRRGLKYELISETGGSHDKRFVMEVEVDGQKFQGAGSNKKVAKAYAALAALEKLFPDTPLALDANKKKRAPVPVRGGPKFAAKPHNPGFGMGGPMHNEVPPPPNLRGRGRGGSIRGRGRGRGFGGANHGGYMNAGAGYGSYGYGGNSATAGYSQFYSNGGHSGNASGGGGGGGGGSSGYGSYYQGDNYNSPVPPKHAGKKQPHGGQQKPSYGSGYQSHQGQQQSYNQSPYSNYGPPQGKQKGYNHGQGSYSYSNSYNSPGGGGGSDYNYESKFNYSGSGGRSGGNSYGSGGASYNPGSHGGYGGGSGGGSSYQGKQGGYSQSNYNSPGSGQNYSGPPSSYQSSQGGYGRNADHSMNYQYR
Q: With B1 as the binder, how does the binding read?
A: binds
